From article PMC12155096 (International Journal of Molecular Sciences, 2025)
Where a name gives a salt, the structure may show the parent alone.

Protein sequences, listed by entry. Tags and fused reporters are not part of them.
UniProt P33261, whole entry: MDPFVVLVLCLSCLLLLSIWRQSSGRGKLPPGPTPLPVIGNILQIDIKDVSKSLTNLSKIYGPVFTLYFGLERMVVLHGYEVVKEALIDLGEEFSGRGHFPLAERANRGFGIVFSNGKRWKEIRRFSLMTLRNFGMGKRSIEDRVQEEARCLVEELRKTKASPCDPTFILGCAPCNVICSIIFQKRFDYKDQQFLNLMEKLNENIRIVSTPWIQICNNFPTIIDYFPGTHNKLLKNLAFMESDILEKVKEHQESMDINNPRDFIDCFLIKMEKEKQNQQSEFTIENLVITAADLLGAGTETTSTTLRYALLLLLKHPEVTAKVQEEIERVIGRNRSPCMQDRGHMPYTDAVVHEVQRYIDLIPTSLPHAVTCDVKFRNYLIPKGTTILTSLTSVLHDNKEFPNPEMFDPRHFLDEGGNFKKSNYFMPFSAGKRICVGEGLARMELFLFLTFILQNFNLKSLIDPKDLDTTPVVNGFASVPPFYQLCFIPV

Biological target: human CYP2C19 (Homo sapiens, UniProt P33261)

COc1cc2c(cc1OC)C(=O)C(CC1CCN(Cc3ccccc3)CC1)C2 (stereo not shown) [Donepezil hydrochloride]
CYP2C19 AC50 (half-maximal activity concentration): Inconclusive activator
